PubChem BioAssay AID504774 | Drosophila RNAi Screening Center | 2011
Aim: 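Knock-downs that shift viability of MMS-exposed cells relative to untreated ones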 (primary screen). Cell system: Drosophila Kc167 cells. Reagents: long dsRNA against Drosophila genes, about 0.25 µg dsRNA per well. Time to read-out: about 6 days: 3 days knock-down, then 3 days with or without MMS. Conditions: methyl methanesulphonate 0.004% (w/v) for 3 days after knock-down. Detection: 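Viability in wells given MMS, read as ATP luminescence, normalised by quantiles plate by plate and averaged across replicates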. Scale: mean viability with MMS and viability with MMS: higher = more surviving cells after MMS.
The screen tested about 23,000 reagents; this is an unselected part of those that have a named target and a result. 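Values are quantile-normalised luminescence on an arbitrary scale; higher means more cells surviving MMS.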 Reagents against one gene are numbered here. Not all columns of the deposit are shown. Reagent sequences are not shown.

CycY (GeneID 34593)
- mean viability with MMS: 3.81e6
- viability with MMS, replicate 1: 4.20e6

obst-G (GeneID 39355)
- mean viability with MMS: 3.45e6
- viability with MMS, replicate 1: 3.94e6

AspRS (GeneID 36420)
- mean viability with MMS: 3.41e6
- viability with MMS, replicate 1: 3.87e6

CG11178 (GeneID 32315)
- mean viability with MMS: 3.54e6
- viability with MMS, replicate 1: 4.23e6

TbCMF46 (GeneID 34318)
- mean viability with MMS: 3.40e6
- viability with MMS, replicate 1: 3.80e6

tant (GeneID 44785)
- mean viability with MMS: 3.42e6
- viability with MMS, replicate 1: 3.84e6

Sans (GeneID 36427)
- mean viability with MMS: 3.20e6
- viability with MMS, replicate 1: 3.72e6

CG17715 (GeneID 3355129)
- mean viability with MMS: 3.40e6
- viability with MMS, replicate 1: 3.79e6

CG15439 (GeneID 33651)
- mean viability with MMS: 1.66e6
- viability with MMS, replicate 1: 3.85e6

CG14881 (GeneID 41990)
- mean viability with MMS: 3.30e6
- viability with MMS, replicate 1: 3.75e6

Sld5 (GeneID 43166)
- mean viability with MMS: 3.53e6
- viability with MMS, replicate 1: 4.07e6

CG31697 (GeneID 35243)
- mean viability with MMS: 3.51e6
- viability with MMS, replicate 1: 4.04e6

CG13031 (GeneID 39867)
- mean viability with MMS: 3.46e6
- viability with MMS, replicate 1: 3.84e6

CG11791 (GeneID 43000)
- mean viability with MMS: 3.33e6
- viability with MMS, replicate 1: 3.78e6

CG7091 (GeneID 41590) #1
- mean viability with MMS: 3.57e6
- viability with MMS, replicate 1: 4.15e6

CG7091 (GeneID 41590) #2
- mean viability with MMS: 3.38e6
- viability with MMS, replicate 1: 3.76e6

hoip (GeneID 44173)
- mean viability with MMS: 2.77e6
- viability with MMS, replicate 1: 3.43e6

Nxt1 (GeneID 37769)
- mean viability with MMS: 3.29e6
- viability with MMS, replicate 1: 3.62e6

dally (GeneID 39013) #1
- mean viability with MMS: 3.58e6
- viability with MMS, replicate 1: 3.96e6

dally (GeneID 39013) #2
- mean viability with MMS: 3.53e6
- viability with MMS, replicate 1: 4.06e6

CG12947 (GeneID 41201)
- mean viability with MMS: 3.82e6
- viability with MMS, replicate 1: 4.30e6

Clbn (GeneID 43018)
- mean viability with MMS: 3.46e6
- viability with MMS, replicate 1: 3.85e6

sunz (GeneID 40811)
- mean viability with MMS: 3.66e6
- viability with MMS, replicate 1: 4.23e6

Fak (GeneID 37233)
- mean viability with MMS: 3.56e6
- viability with MMS, replicate 1: 3.84e6

CG14043 (GeneID 33714)
- mean viability with MMS: 3.52e6
- viability with MMS, replicate 1: 4.15e6

CG15882 (GeneID 32895)
- mean viability with MMS: 3.49e6
- viability with MMS, replicate 1: 3.98e6

CG10164 (GeneID 42777)
- mean viability with MMS: 1.76e6
- viability with MMS, replicate 1: 4.06e6

Dolk (GeneID 36856)
- mean viability with MMS: 3.57e6
- viability with MMS, replicate 1: 4.11e6

Cyp4p2 (GeneID 35946)
- mean viability with MMS: 3.45e6
- viability with MMS, replicate 1: 3.94e6

CG3719 (GeneID 44736)
- mean viability with MMS: 1.83e6
- viability with MMS, replicate 1: 4.07e6

TotA (GeneID 44121)
- mean viability with MMS: 3.71e6
- viability with MMS, replicate 1: 4.25e6

kl-2 (GeneID 3355181)
- mean viability with MMS: 3.50e6
- viability with MMS, replicate 1: 4.04e6

Mgat2 (GeneID 43563)
- mean viability with MMS: 3.56e6
- viability with MMS, replicate 1: 4.05e6

ppk12 (GeneID 37566)
- mean viability with MMS: 3.47e6
- viability with MMS, replicate 1: 3.91e6

CG10916 (GeneID 37081)
- mean viability with MMS: 3.58e6
- viability with MMS, replicate 1: 4.05e6

Only “viability with MMS, replicate 1”, for 2 of the entries above:
Cyp4p2 (GeneID 35946)	3.94e6
CG3719 (GeneID 44736)	4.07e6
